Source: PubChem BioAssay AID504774 (Drosophila RNAi Screening Center, 2011)
Screen: 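Fly genes whose loss alters survival after alkylation damage to DNA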 (primary screen). Cell system: Drosophila Kc167 cells. Reagents: long dsRNA against Drosophila genes, about 0.25 µg dsRNA per well. Timing: about 6 days: 3 days knock-down, then 3 days with or without MMS. Conditions: methyl methanesulphonate 0.004% (w/v) for 3 days after knock-down. Measurement: 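Viability in wells given MMS, read as ATP luminescence, normalised by quantiles plate by plate and averaged across replicates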. Scale: mean viability with MMS and viability with MMS: higher = more surviving cells after MMS.
In all, the deposit lists about 23,000 reagents; below is a random part of those that have a named target and a result. 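Values are quantile-normalised luminescence on an arbitrary scale; higher means more cells surviving MMS.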

Target gene	amplicon	mean viability with MMS	viability with MMS, replicate 1	viability with MMS, replicate 2
CG9775	DRSC12330	3.48e6	3.91e6	3.97e6
CG9775	DRSC22667	3.42e6	3.83e6	4.00e6
CG15145	DRSC02446	3.48e6	3.96e6	3.94e6
Apoltp (Apolipoprotein lipid transfer particle)	DRSC02508	3.57e6	4.19e6	3.93e6
Wnt5 (Wnt oncogene analog 5)	DRSC20300	3.24e6	3.58e6	3.63e6
CG12990	DRSC19510	3.58e6	4.07e6	4.04e6
CG15905	DRSC06591	3.63e6	4.19e6	4.01e6
CG7966	DRSC16356	3.62e6	4.20e6	4.04e6
Npc2f (Niemann-Pick type C-2f)	DRSC15980	3.68e6	4.12e6	4.16e6
Tgi (Tondu-domain-containing Growth Inhibitor)	DRSC09793	3.52e6	3.98e6	4.00e6
Tgi (Tondu-domain-containing Growth Inhibitor)	DRSC09794	3.55e6	3.98e6	4.07e6
MED14 (Mediator complex subunit 14)	DRSC08235	2.81e6	3.52e6	3.54e6
CG15203	DRSC19650	3.69e6	4.08e6	4.23e6
CG4631	DRSC02766	3.30e6	3.86e6	3.86e6
CG4631	DRSC22194	3.73e6	4.18e6	4.19e6
CG18661	DRSC02690	3.52e6	3.77e6	4.23e6
CG30345	DRSC05144	3.50e6	4.01e6	3.93e6
nmdyn-D7	DRSC17016	3.60e6	4.09e6	4.03e6
CG11726	DRSC09858	3.53e6	3.95e6	4.06e6
alph (alphabet)	DRSC15398	3.61e6	4.16e6	4.02e6
dac (dachshund)	DRSC03518	3.35e6	3.80e6	3.78e6
cag	DRSC07587	3.40e6	3.90e6	3.84e6
CG14339	DRSC00369	3.80e6	4.24e6	4.41e6
BBS9 (Bardet-Biedl syndrome 9)	DRSC04257	3.52e6	3.93e6	4.05e6
CG13813	DRSC10068	3.43e6	4.07e6	3.69e6
PIG-L (Phosphatidylinositol glycan anchor biosynthesis class L)	DRSC15577	3.55e6	4.15e6	3.91e6
CG14609	DRSC12553	3.50e6	4.04e6	3.92e6
Hexo1 (Hexosaminidase 1)	DRSC08663	3.42e6	3.87e6	3.89e6

3 successive entries from above:
Target gene	amplicon	mean viability with MMS	viability with MMS, replicate 1	viability with MMS, replicate 2
Wnt5 (Wnt oncogene analog 5)	DRSC20300	3.24e6	3.58e6	3.63e6
CG12990	DRSC19510	3.58e6	4.07e6	4.04e6
CG15905	DRSC06591	3.63e6	4.19e6	4.01e6
